From PubChem BioAssay AID687031 (Broad Institute, 2013)
Among all 1,400 compounds or so, about 50 (4%) were called active.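 The calls were made as follows: active = fitted curve reaches 30% CPE protection at or below the top valid dose, with every test run called active; inconclusive = test runs disagree, some active and some not; inactive = every test run inactive, including effects in the wrong direction.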 Some of the results follow. Measured potencies and affinities stand elsewhere.

test: Dengue virus 2 cytopathic effect protection, dose response, BHK-21 cells, ATP luminescence, cherry-pick (AID 687031); conditions: BHK-21 DENV2 CPE protection, 5 d; at 19.5 µM (top of the series) unless noted;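 also: 0% = infected DMSO wells and 100% = uninfected cell wells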

CPE protection (higher = active), inactive:
Cc1ccc(S(=O)(=O)N2CCCCC2)cc1NC(=O)c1cc(=O)[nH]c2ccccc12 -6.88%
O=C(C[C@@H]1CC[C@H]2[C@@H](COC[C@@H](O)CN2C(=O)c2ccncc2)O1)NCc1ccc(-c2ccccc2)cc1 -12.4%
C[C@@H]1CN([C@H](C)CO)C(=O)c2cc(-c3ccccc3)cnc2O[C@@H]1CN(C)C(=O)c1ccccc1F 3.63%
COc1cc(OC)cc(C(=O)Nc2ccc3nc4n(c(=O)c3c2)CCCC4)c1 -7.66%
Cc1cc(Cl)c2oc(C(=O)N(C)CCCCN3CCOCC3)c(C)c2c1 16.9%
O=C(C[C@H]1C=C[C@H](NS(=O)(=O)c2ccccc2)[C@H](CO)O1)N1CCC(Cc2ccccc2)CC1 -16.4%
COc1ccc(-c2ccc3c(c2)[C@@H]2[C@@H](CCN2C(=O)C2CCOCC2)[C@@H](CO)N3C)cc1 -18%
C[C@@H]1CCCCO[C@@H](CN(C)C(=O)c2ccccc2)[C@@H](C)CN([C@H](C)CO)C(=O)c2cc(NC(=O)CCC(F)(F)F)ccc2O1 -4.35%
O=C(O)Cc1ccc(NC(=O)c2ccc(NC(=O)C3CC3)cc2)cc1 -6.03%
O=C(Nc1nnc(Cc2ccccc2F)s1)c1ccccc1Cl 12%
CCN(C(=O)N(CC)c1ccccc1)c1ccccc1 2.33%
COc1ccc(S(=O)(=O)N2CCCCC2c2cc(C(=O)Nc3ccccc3)no2)cc1 (stereo not given) 23%
O=S(=O)(c1cccs1)N1CCN(c2ccnc3cc(Cl)ccc23)CC1 21.1%
COC(=O)C1(CC2CC(c3ccncc3)=NO2)CCN(C(=O)OC(C)(C)C)CC1 (stereo not given) -25.7%
Cc1ccc(Cn2cc(CN3CC(N4CCSCC4)CS3(=O)=O)nn2)cc1 (stereo not given) 14.4%
CNC[C@@H]1OCCCC[C@H](C)Oc2ccc(NS(=O)(=O)c3c(C)noc3C)cc2C(=O)N([C@@H](C)CO)C[C@H]1C 17.3%
CC(C)(C)c1ccc(C(=O)OCC(=O)Nc2sc3c(c2C#N)CCC3)cc1 6.08%
Cc1cc(NC(=O)Cn2c(=O)oc3ccc(Cl)cc32)no1 21.6%
COc1cc2c(cc1OC)C(Nc1ccc(S(N)(=O)=O)cc1)=NC(C)(C)C2 -11.4%
Cn1c(=O)c2[nH]c(CCCCc3nc4ccccc4[nH]3)nc2n(C)c1=O 6.76%
Cc1ccc2c(COC(=O)CNC(=O)c3ccccc3)cc(=O)oc2c1 -8.55%
CN(C)C(=O)c1cccc(-c2ccc(C3[C@H]4CNC[C@@H]3N4Cc3cc(F)ccc3F)cc2)c1 (stereo not given in full) -17%
CC1CCCCC12NC(=O)N(CC(=O)NCc1cccs1)C2=O (stereo not given) 2.88%
Cc1ccc2[nH]c(-c3ccccc3)cc(=O)c2c1 -26.5%
CC1CCC(CN2CCN=C2Nc2ccccc2)CC1 (stereo not given) 26.6%
O=C(NCc1ccccc1)[C@H]1CCCN1C(=O)[C@H]1CCCN1C(=O)c1ccc(Cl)cc1 -10.2%
CN1C[C@@H]2[C@@H]3C(=O)N(Cc4ccccc4)C(=O)[C@@H]3[C@](C)(C1=O)N2C(=O)c1ccc(C(C)(C)C)cc1 8.78%
C[C@@H]1CCCCO[C@@H](CN(C)S(=O)(=O)c2ccc(F)cc2)[C@@H](C)CN([C@H](C)CO)C(=O)c2cc(NC(=O)Nc3ccc(C(F)(F)F)cc3)ccc2O1 -3.5% [at 21 µM]
Cc1cnc(CN(C)C(=O)CC2C(=O)NCCN2Cc2cccc(F)c2F)[nH]1 (stereo not given) 12.8%
CN(C)CC#Cc1ccc([C@H]2[C@@H](CO)N(C(=O)C3CCC3)[C@H]2C#N)cc1 -9.33%
Cc1ccc(S(=O)(=O)N(C)C[C@@H]2OCCCC[C@H](C)Oc3ccc(NS(=O)(=O)c4c(C)noc4C)cc3C(=O)N([C@@H](C)CO)C[C@@H]2C)cc1 -20.7%
CCC(=O)Nc1ccc(NC(=O)c2oc3ccccc3c2C)cc1 -18.3%
Cc1cccnc1C(NC(=O)C1CCN(CCCc2ccccc2)CC1)c1ccc(Cl)cc1 (stereo not given) 10.6%
Cc1ccc(C(=O)OCC(=O)N2C(C)CCCC2C)cc1S(=O)(=O)N1CCOCC1 (stereo not given) 2.87%
CC(C)CN(C(=O)c1cc(Cl)nc2ccccc12)c1c(N)n(Cc2ccccc2)c(=O)[nH]c1=O -16.7%
Cc1noc(C)c1S(=O)(=O)Nc1cccc2c1O[C@H](CN(C)C(=O)NC(C)C)[C@H](C)CN([C@@H](C)CO)C2=O 11.1%
CC(Oc1ccc(Cl)cc1Cl)C(=O)NCCCN1CCOCC1 (stereo not given) -24.5%
Cc1ccccc1OCCCCN1CCCCC1 2.62%
COc1cccc(-c2ccc3c(c2)[C@H]2[C@H](CCN2S(=O)(=O)c2cn(C)cn2)[C@@H](CO)N3)c1 -4.08%
C=CCc1ccc(OCCCNCc2ccccc2)c(OC)c1 -3.76%
CCCCN(C)CCCNC(=O)c1cc(-c2cccs2)nc2ccccc12 27.6%
O=C(Nc1ccc(Cl)cc1)N(CCCN1CCOCC1)Cc1cccs1 -12.8%
CCN(CC(=O)Nc1cc(Cl)ccc1C)C(=O)c1ccc2c(c1)NC(=O)C(C)S2 (stereo not given) -3.39%
Cc1ccccc1CN1CCN(CC(=O)NC(C)c2ccccc2)CC1 (stereo not given) -3.52%
CSc1ccc(S(=O)(=O)NC2CC3CCC2C3)cc1 (stereo not given) -7.3%
CCN(CC(=O)Nc1c(F)cccc1F)C(=O)C1CCN(S(=O)(=O)c2ccc(F)cc2)CC1 -5.16%
CN(CCc1ccccn1)C(=O)CCC1CCCN(C(=O)c2cccc(N(C)C)c2)C1 (stereo not given) -10.9%
O=C(OCC(=O)N1CCc2ccccc21)[C@@H]1CCCN1S(=O)(=O)c1ccccc1F 29%
C/C(=N/NC(=O)CCC(=O)Nc1cccc(Cl)c1)c1ccc(C)cc1 4.62%
C[C@@H](NC(=O)c1ncn(C)c1C(=O)N[C@H](C)c1ccccc1)c1ccccc1 2.74%

Grouped by structure: the compounds so far containing a furan ring, fused or not.
CPE protection (higher = active), inactive:
Cc1cc(Cl)c2oc(C(=O)N(C)CCCCN3CCOCC3)c(C)c2c1 16.9%
CCC(=O)Nc1ccc(NC(=O)c2oc3ccccc3c2C)cc1 -18.3%
